Experimental data published in publication PMC5681548.
These are yes or no findings as the source states them, for the method shown. Binding seen in cells or lysates may run through a third protein. Some results given as binding are weak or reduced against the parent protein; the word gives no strength.

T1: KH-Type Splicing Regulatory Protein (KSRP) (human (endogenous in THP-1 and 293T)) (UniProt Q92945)
T1 sequence: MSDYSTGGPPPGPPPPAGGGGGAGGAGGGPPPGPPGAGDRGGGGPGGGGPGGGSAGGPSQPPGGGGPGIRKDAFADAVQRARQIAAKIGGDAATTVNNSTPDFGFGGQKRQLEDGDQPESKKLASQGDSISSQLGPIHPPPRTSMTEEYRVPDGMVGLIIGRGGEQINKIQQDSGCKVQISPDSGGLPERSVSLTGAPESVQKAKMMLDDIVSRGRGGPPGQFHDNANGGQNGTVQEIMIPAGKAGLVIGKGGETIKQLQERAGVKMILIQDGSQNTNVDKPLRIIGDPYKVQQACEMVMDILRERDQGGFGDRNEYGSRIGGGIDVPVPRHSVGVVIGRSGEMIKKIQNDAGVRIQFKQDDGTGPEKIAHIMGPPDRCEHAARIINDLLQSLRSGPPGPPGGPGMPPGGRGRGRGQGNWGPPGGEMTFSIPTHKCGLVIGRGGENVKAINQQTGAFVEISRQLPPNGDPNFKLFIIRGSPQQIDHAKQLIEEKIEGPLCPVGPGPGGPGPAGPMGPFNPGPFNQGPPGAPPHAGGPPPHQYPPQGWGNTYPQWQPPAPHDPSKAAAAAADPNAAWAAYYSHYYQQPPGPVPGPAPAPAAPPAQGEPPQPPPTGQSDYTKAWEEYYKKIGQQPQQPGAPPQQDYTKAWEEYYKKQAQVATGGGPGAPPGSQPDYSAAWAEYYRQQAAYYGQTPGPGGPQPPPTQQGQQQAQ

B1: Drosha (enzyme, UniProt Q9NRR4 1-1374)
chain: MMQGNTCHRMSFHPGRGCPRGRGGHGARPSAPSFRPQNLRLLHPQQPPVQYQYEPPSAPSTTFSNSPAPNFLPPRPDFVPFPPPMPPSAQGPLPPCPIRPPFPNHQMRHPFPVPPCFPPMPPPMPCPNNPPVPGAPPGQGTFPFMMPPPSMPHPPPPPVMPQQVNYQYPPGYSHHNFPPPSFNSFQNNPSSFLPSANNSSSPHFRHLPPYPLPKAPSERRSPERLKHYDDHRHRDHSHGRGERHRSLDRRERGRSPDRRRQDSRYRSDYDRGRTPSRHRSYERSRERERERHRHRDNRRSPSLERSYKKEYKRSGRSYGLSVVPEPAGCTPELPGEIIKNTDSWAPPLEIVNHRSPSREKKRARWEEEKDRWSDNQSSGKDKNYTSIKEKEPEETMPDKNEEEEEELLKPVWIRCTHSENYYSSDPMDQVGDSTVVGTSRLRDLYDKFEEELGSRQEKAKAARPPWEPPKTKLDEDLESSSESECESDEDSTCSSSSDSEVFDVIAEIKRKKAHPDRLHDELWYNDPGQMNDGPLCKCSAKARRTGIRHSIYPGEEAIKPCRPMTNNAGRLFHYRITVSPPTNFLTDRPTVIEYDDHEYIFEGFSMFAHAPLTNIPLCKVIRFNIDYTIHFIEEMMPENFCVKGLELFSLFLFRDILELYDWNLKGPLFEDSPPCCPRFHFMPRFVRFLPDGGKEVLSMHQILLYLLRCSKALVPEEEIANMLQWEELEWQKYAEECKGMIVTNPGTKPSSVRIDQLDREQFNPDVITFPIIVHFGIRPAQLSYAGDPQYQKLWKSYVKLRHLLANSPKVKQTDKQKLAQREEALQKIRQKNTMRREVTVELSSQGFWKTGIRSDVCQHAMMLPVLTHHIRYHQCLMHLDKLIGYTFQDRCLLQLAMTHPSHHLNFGMNPDHARNSLSNCGIRQPKYGDRKVHHMHMRKKGINTLINIMSRLGQDDPTPSRINHNERLEFLGDAVVEFLTSVHLYYLFPSLEEGGLATYRTAIVQNQHLAMLAKKLELDRFMLYAHGPDLCRESDLRHAMANCFEALIGAVYLEGSLEEAKQLFGRLLFNDPDLREVWLNYPLHPLQLQEPNTDRQLIETSPVLQKLTEFEEAIGVIFTHVRLLARAFTLRTVGFNHLTLGHNQRMEFLGDSIMQLVATEYLFIHFPDHHEGHLTLLRSSLVNNRTQAKVAEELGMQEYAITNDKTKRPVALRTKTLADLLESFIAALYIDKDLEYVHTFMNVCFFPRLKEFILNQDWNDPKSQLQQCCLTLRTEGKEPDIPLYKTLQTVGPSHARTYTVAVYFKGERIGCGKGPSIQQAEMGAAMDALEKYNFPQMAHQKRFIERKYRQELKEMRWEREHQEREPDETEDIKK
B2: DGCR8 (protein, UniProt Q8WYQ5 1-773)
chain: METDESPSPLPCGPAGEAVMESRARPFQALPREQSPPPPLQTSSGAEVMDVGSGGDGQSELPAEDPFNFYGASLLSKGSFSKGRLLIDPNCSGHSPRTARHAPAVRKFSPDLKLLKDVKISVSFTESCRSKDRKVLYTGAERDVRAECGLLLSPVSGDVHACPFGGSVGDGVGIGGESADKKDEENELDQEKRVEYAVLDELEDFTDNLELDEEGAGGFTAKAIVQRDRVDEEALNFPYEDDFDNDVDALLEEGLCAPKKRRTEEKYGGDSDHPSDGETSVQPMMTKIKTVLKSRGRPPTEPLPDGWIMTFHNSGVPVYLHRESRVVTWSRPYFLGTGSIRKHDPPLSSIPCLHYKKMKDNEEREQSSDLTPSGDVSPVKPLSRSAELEFPLDEPDSMGADPGPPDEKDPLGAEAAPGALGQVKAKVEVCKDESVDLEEFRSYLEKRFDFEQVTVKKFRTWAERRQFNREMKRKQAESERPILPANQKLITLSVQDAPTKKEFVINPNGKSEVCILHEYMQRVLKVRPVYNFFECENPSEPFGASVTIDGVTYGSGTASSKKLAKNKAARATLEILIPDFVKQTSEEKPKDSEELEYFNHISIEDSRVYELTSKAGLLSPYQILHECLKRNHGMGDTSIKFEVVPGKNQKSEYVMACGKHTVRGWCKNKRVGKQLASQKILQLLHPHVKNWGSLLRMYGRESSKMVKQETSDKSVIELQQYAKKNKPNLHILSKLQEEMKRLAEEREETRKKPKMSIVASAQPGGEPLCTVDV

Tests used:
[1] = molecular target: T1, KH-Type Splicing Regulatory Protein (KSRP) (human (endogenous in THP-1 and 293T)); assay: co-IP; endogenous proteins of THP-1 cells; KSRP immunoprecipitates incubated with or without RNAse A (0.1 mg/mL) at 37 °C for 20 min; blots for Drosha, DGCR8 and KSRP
[2] = molecular target: T1, KH-Type Splicing Regulatory Protein (KSRP) (human (endogenous in THP-1 and 293T)); assay: proximity ligation; in situ PLA in fixed, permeabilised 293T cells; anti-KSRP paired with rabbit anti-Drosha or rabbit anti-DGCR8; anti-KSRP with normal rabbit IgG as negative control; dots per cell counted in at least 100 cells

Row | Binder | binding [1] | binding [2]
1 | B1 | binds | binds
2 | B2 | binds | binds
